Experimental findings from PMC4728126, “Stable G protein-effector complexes in striatal neurons: mechanism of assembly and role in neurotransmitter signaling” (eLife, 2015) are described below.

By UniProt entry, the sequences of proteins in these tests, tags left out.
UniProt P62879: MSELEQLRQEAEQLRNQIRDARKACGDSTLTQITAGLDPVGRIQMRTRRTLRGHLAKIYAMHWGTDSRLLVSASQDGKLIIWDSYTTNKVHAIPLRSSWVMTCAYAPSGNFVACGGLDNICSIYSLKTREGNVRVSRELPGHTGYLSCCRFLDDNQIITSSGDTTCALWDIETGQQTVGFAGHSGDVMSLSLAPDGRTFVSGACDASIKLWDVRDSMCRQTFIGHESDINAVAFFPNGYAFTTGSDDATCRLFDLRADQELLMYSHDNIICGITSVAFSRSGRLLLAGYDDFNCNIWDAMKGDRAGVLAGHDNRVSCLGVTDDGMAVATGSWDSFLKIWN
UniProt P84309: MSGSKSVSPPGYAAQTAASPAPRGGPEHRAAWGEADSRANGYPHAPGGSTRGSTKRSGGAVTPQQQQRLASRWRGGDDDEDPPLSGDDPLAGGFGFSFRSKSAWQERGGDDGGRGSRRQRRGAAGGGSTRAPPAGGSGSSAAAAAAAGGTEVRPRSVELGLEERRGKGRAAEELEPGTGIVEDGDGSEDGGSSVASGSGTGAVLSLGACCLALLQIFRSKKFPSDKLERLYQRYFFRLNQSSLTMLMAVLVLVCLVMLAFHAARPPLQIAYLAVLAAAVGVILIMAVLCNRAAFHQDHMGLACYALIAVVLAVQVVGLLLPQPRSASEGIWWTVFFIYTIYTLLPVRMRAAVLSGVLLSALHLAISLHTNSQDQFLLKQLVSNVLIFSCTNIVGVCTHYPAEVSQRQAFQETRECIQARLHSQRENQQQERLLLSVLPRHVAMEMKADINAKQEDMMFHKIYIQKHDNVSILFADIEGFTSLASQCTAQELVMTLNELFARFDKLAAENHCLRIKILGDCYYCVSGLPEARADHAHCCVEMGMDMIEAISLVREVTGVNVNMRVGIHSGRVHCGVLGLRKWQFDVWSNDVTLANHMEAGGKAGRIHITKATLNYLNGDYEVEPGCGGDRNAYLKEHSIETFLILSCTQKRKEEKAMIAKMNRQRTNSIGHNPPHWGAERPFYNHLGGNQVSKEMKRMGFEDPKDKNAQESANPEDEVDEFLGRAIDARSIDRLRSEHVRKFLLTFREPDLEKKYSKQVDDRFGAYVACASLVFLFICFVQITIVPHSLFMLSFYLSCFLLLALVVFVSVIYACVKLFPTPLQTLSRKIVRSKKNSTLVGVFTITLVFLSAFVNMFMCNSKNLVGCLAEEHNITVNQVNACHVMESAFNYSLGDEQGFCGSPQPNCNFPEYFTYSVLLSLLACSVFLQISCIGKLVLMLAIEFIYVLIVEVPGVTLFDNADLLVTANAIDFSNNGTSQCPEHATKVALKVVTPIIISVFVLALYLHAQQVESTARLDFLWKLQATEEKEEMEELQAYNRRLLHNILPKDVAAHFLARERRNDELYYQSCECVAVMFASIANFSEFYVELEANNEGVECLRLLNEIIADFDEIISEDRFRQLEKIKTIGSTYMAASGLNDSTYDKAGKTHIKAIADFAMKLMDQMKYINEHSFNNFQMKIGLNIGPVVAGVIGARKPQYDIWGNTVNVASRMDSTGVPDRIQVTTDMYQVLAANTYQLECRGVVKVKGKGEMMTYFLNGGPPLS
UniProt O60262: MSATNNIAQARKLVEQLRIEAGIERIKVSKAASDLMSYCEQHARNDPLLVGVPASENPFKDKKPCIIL
UniProt Q8CGK7: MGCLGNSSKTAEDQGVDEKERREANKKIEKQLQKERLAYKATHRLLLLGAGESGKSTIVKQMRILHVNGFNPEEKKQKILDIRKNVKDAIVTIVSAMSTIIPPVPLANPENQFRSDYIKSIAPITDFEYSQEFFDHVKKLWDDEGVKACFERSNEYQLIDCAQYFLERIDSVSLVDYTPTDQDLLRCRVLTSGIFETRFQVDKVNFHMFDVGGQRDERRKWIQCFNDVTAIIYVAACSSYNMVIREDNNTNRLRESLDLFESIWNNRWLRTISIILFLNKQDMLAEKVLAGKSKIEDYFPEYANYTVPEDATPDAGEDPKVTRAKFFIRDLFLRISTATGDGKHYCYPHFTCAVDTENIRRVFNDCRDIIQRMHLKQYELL

No constants are given. Whether binding was seen depends on the method and setting. Binding seen in cells or lysates may run through a third protein. Some binding calls cover weakened binding; strength is not graded here.

Test [1] addresses Venus155-239-Gβ2 (UniProt P62879). The experiment in a line: split reporter; split-Venus complementation of Venus155-239-Gβ2 and Venus1-155-Gγ7 in transfected HEK293 cells; Venus fluorescence intensity; without or with co-expressed PhLP1 or ΔNT-PhLP1.
Test [2] addresses adenylyl cyclase type 5 (mouse (endogenous in striatum)) (UniProt P84309). The experiment in a line: co-IP; anti-AC5 monoclonal antibody (3 μg) and protein G beads, 1 hr at 4°C, mouse striatal lysate in 1xPBS, 150 mM NaCl, 0.5% C12E9; no receptor stimulation; immunoblot; controls: non-immune IgG, Adcy5-/- tissue.

On to “Venus1-155-Gγ7 (from UniProt O60262 1-68)”, for which the binding result in test [1] is listed as “binds”.

On to Gαolf (from UniProt Q8CGK7 1-381), for which, in test [2], the binding entry is given as “binds”.
